These are yes or no findings as the source states them, for the method shown. Binding can be weak; no strength is given. Where a sequence is shown, tags or fusion partners need not be part of it.
Target: MTB, yeast two-hybrid fusion (Arabidopsis thaliana)
Assay: two-hybrid; yeast two-hybrid, fusions to activation domain (pDEST22) and binding domain (pDEST32); growth on media lacking histidine with 3-AT (-LTH) or lacking adenine (-LTA), recorded after 4 d; three technical and three biological replicates

B1: HAKAI, yeast two-hybrid fusion (protein, UniProt Q9LFC0 1-360)
chain: MLQIRLRRDSPTETGNGARPSPTETVTVACPDHLVLADLPVAKGIGSVTPTTVIKPVGRRSRRQLGERVHFCVRCDFPIAIYGRLIPCDHAFCLECARSDSICYLCDERIQKIQTIKMMEGIFICAAPHCLRSFLKKLDFEAHVHDLHGSLLQADAEKEDGNQSDVQSTMQQSSASESTLRAPLRSQLQQSRELNRSASFAKSQSGFSQVQNYPPDSDNSRPPGFETASPKPGIRFPDYPQPMNLMQPPSLPVPMNQNPGLPQQFGFPSYPTTESGSSQQFFNGAQYEMTRTESGGSEQSSLLGYPPPSPMTNLNFQGSYPPPSWNPGMAPPHTTQQVNRGRDGQSFGWPQENRDGFGQE
binding: binds weakly

— paper PMC5488176
